PubChem BioAssay AID687031 (Broad Institute, 2013)
Only a part is listed here, and it is no random draw. Results with a measured potency or affinity are listed apart. The source made the active and inactive calls.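 How the source made its calls: active means fitted curve reaches 30% CPE protection at or below the top valid dose, with every test run called active; inconclusive means test runs disagree, some active and some not; inactive means every test run inactive, including effects in the wrong direction.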

experiment: Dengue virus 2 cytopathic effect protection, dose response, BHK-21 cells, ATP luminescence, cherry-pick (AID 687031); details: BHK-21 DENV2 CPE protection, 5 d; at 19.5 µM (top of the series);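 further: 0% = infected DMSO wells and 100% = uninfected cell wells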

| SMILES | CPE protection (higher = active) |
| --- | --- |
| CCCCCCCCc1ccc(O)cc1 | inactive: 15.7% |
